Results are given in words; binding and its absence hold for the method and conditions named. In cells and extracts the contact can be indirect. A yes stands for co-enrichment or nearness to the bait. Other partners may have been found.
Target: Vascular Endothelial Growth Factor Receptor-2 (VEGFR2), nuclear (human (endogenous in HUVEC)) (UniProt P35968)
Assay: affinity purification with mass spectrometry; IP of 1 mg EC nuclear extract with anti-human VEGFR2, 8% SDS-PAGE, silver staining, in-gel trypsin digestion, nanoflow LC-MS/MS, Mascot search

Chains of the proteins cited; added tags and fusions are not shown. Residues count along the entry.
UniProt P35968, residues 20-1356: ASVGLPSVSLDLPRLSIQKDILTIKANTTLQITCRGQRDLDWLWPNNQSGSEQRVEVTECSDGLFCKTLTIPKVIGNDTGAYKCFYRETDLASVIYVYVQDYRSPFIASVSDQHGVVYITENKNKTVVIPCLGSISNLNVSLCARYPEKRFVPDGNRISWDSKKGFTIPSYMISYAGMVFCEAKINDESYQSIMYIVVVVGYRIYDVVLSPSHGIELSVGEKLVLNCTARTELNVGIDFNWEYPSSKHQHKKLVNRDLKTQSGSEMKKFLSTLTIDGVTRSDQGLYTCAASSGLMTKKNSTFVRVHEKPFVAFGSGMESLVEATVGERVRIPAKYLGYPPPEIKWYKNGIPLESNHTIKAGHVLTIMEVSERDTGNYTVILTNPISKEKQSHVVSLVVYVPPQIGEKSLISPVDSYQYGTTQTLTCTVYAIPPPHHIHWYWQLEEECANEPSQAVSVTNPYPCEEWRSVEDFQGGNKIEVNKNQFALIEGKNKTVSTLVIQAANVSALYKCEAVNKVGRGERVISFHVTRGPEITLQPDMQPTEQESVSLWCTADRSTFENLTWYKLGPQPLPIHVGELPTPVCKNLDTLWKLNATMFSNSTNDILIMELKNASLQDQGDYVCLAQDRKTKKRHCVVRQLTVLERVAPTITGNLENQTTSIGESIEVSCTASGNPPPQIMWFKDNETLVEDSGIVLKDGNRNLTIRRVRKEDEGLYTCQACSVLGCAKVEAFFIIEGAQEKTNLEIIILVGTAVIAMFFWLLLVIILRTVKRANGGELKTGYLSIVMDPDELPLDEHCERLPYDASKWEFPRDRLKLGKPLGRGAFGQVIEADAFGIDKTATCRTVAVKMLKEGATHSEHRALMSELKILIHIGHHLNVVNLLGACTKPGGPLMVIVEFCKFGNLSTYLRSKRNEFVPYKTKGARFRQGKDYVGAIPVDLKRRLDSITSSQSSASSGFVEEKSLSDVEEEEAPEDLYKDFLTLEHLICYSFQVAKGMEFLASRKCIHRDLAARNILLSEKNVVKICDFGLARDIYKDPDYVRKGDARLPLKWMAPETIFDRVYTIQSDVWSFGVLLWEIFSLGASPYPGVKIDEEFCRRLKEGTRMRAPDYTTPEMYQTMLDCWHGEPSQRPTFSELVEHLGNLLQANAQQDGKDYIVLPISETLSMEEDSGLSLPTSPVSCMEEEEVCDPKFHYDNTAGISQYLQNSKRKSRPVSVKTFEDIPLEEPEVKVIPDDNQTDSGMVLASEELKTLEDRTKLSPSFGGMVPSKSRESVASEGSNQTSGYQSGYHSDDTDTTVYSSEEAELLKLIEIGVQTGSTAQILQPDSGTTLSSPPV
UniProt P08047: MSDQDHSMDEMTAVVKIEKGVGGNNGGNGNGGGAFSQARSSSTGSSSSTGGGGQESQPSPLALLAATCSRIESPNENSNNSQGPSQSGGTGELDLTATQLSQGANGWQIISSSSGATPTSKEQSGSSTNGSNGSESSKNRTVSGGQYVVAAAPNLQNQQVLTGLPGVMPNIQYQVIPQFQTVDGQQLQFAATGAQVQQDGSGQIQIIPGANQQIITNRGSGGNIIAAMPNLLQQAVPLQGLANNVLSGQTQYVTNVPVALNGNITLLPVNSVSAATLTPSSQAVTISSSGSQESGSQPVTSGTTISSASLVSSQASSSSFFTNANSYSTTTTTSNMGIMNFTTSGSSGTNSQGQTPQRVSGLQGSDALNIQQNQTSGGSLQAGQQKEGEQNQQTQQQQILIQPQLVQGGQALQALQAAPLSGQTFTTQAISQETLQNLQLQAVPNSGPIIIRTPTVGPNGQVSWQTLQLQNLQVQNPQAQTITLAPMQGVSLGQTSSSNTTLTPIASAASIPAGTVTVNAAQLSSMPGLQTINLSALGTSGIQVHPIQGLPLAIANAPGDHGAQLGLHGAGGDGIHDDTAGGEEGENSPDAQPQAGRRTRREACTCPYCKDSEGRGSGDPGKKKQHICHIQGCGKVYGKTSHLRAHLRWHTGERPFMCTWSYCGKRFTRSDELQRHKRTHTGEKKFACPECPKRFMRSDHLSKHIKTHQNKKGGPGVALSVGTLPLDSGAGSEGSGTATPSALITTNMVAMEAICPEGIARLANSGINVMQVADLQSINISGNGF

Sp1 transcription factor (from UniProt P08047 1-785)
binding: binds
